# Source: PubChem BioAssay AID493014 (National Center for Advancing Translational Sciences (NCATS), 2011)
# This is one part of the list. Further columns of the screen follow, without active or inactive calls. Compounds called inactive in the main read-out are mostly missing here. Potencies come from curve fits of mixed quality, noted in brackets.
# Assay: qHTS Assay to Find Inhibitors of Chronic Active B-Cell Receptor Signaling
# Conditions: ABC-DLBCL IkBa-CBG/CBR reporter, luminescence ratio (green luciferase fused to IkBa over red control in TMD8 lymphoma cells), 4 h
# Procedure, shortened: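 Compounds up to 46 uM were incubated four hours with TMD8 cells whose green CBG68 luciferase is fused to IkappaBalpha; red CBR luminescence normalised the signal, and concentration-effect curves were fitted to fusion, red and ratio data.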
# [1] = measured here: CBR red luminescence, cell number
# [2] = measured here: IkBa-CBG green luminescence
Structure (SMILES),AC50 [1],AC50 [2]
COCc1nc(-c2cc(OC)c(OC)c(OC)c2)no1,"17.8 µM [rising, partial curve, poor fit]",–
COc1ccc(Nc2nc(-c3ccccc3)cs2)cc1,"20.6 µM [falling, single point]",–
O=[N+]([O-])/C(N=Nc1ccccc1)=N\Nc1ccccc1,"17.8 µM [rising, single point]",–
O=C(c1ccc(-c2ccccc2)c(F)c1)C1CCCN(C(=O)c2cncs2)C1 (stereo not given),"0.794 µM [rising, partial curve, poor fit]",–
Cc1cc(C)n(S(=O)(=O)c2cc(C(=O)O)c(Cl)cc2Cl)n1,"29.1 µM [rising, single point]","0.231 µM [rising, full curve, poor fit]"
Cc1cc(C(=O)N(C)C)sc1-c1ccccc1,"4.61 µM [rising, full curve]",–
COc1cc2[nH]c(C(=O)N3CCC(Cc4ccccc4)CC3)cc2c(OC)c1OC,"35.5 µM [falling, single point]",–
Cc1cc(Cl)ccc1OC(C)C(=O)NC(C)C1CCCO1 (stereo not given),"15.8 µM [falling, single point]",–
O=C(Cc1ccccc1[N+](=O)[O-])NCCCc1ccccc1,"7.94 µM [rising, partial curve, poor fit]",–
O=C(Nc1ccc(Cl)cn1)c1cccc(F)c1,"8.91 µM [falling, partial curve, poor fit]",–
S=C(Nc1cccc(Br)c1)c1ccccc1,"0.366 µM [rising, full curve, poor fit]",–
Cc1ccccc1NC(=O)CSC(N)=O,"6.51 µM [rising, single point]",–
COc1ccccc1-c1ccc(SCc2ccccc2)nn1,"11.2 µM [falling, partial curve]",–
CCn1c2ccccc2c2cc(NC(=O)CSc3nnc(C4CC4)n3Cc3ccco3)ccc21,"6.51 µM [falling, single point]","29.1 µM [falling, single point]"
CCN(CC)C(=O)c1sc(N)c(C(=O)OC(C)C)c1C,"9.2 µM [falling, partial curve, poor fit]","1.3 µM [rising, full curve, poor fit]"
N/C(=N\OC(=O)c1ccc(Cl)cc1)c1ccccn1,"10 µM [falling, partial curve, poor fit]",–
COCCN(C(=O)COC(=O)c1cc(C)n(-c2ccccc2)c1C)c1c(N)n(Cc2ccccc2)c(=O)[nH]c1=O,"13 µM [rising, partial curve]",–
CC(C(=O)N1CCc2ccccc2C1)N1C(=O)c2ccccc2C1=O (stereo not given),"0.631 µM [falling, full curve, poor fit]",–
CCn1c(SCC(=O)Nc2ccc(OC)c(OC)c2)nc2c(c1=O)SCC2,"35.5 µM [falling, single point]",–
O=C(Cc1cccs1)Nc1ccc(Cl)cc1,"0.291 µM [rising, partial curve, poor fit]",–
CCCCC(=O)Nc1ccc(NC(=O)C(C)C)cn1,"12.6 µM [rising, single point]",–

# Quoted from the listing.
# AC50 [1], COc1cc2[nH]c(C(=O)N3CCC(Cc4ccccc4)CC3)cc2c(OC)c1OC reads 35.5 µM [falling, single point]
# AC50 [1], S=C(Nc1cccc(Br)c1)c1ccccc1 reads 0.366 µM [rising, full curve, poor fit]
# AC50 [1], O=[N+]([O-])/C(N=Nc1ccccc1)=N\Nc1ccccc1 reads 17.8 µM [rising, single point]
# AC50 [1], COc1ccc(Nc2nc(-c3ccccc3)cs2)cc1 reads 20.6 µM [falling, single point]

# (more compounds)

Structure (SMILES),AC50 [1],AC50 [2]
COC(=O)CSc1nc(C)cc(Oc2ccccc2)n1,"23.1 µM [rising, partial curve, poor fit]",–
CCN(C(=O)COC(=O)CNC(=O)c1ccc2ccccc2c1)C1CCS(=O)(=O)C1 (stereo not given),"15.8 µM [falling, single point]",–
COc1cc(C(c2sc3nc(C)nn3c2O)N2CCC3(CC2)OCCO3)cc(OC)c1OC (stereo not given),"0.92 µM [rising, full curve, poor fit]",–
Cc1[nH]c2ccc(F)cc2c1CCN(Cc1ccncc1)C(=S)Nc1cccc(F)c1,"35.5 µM [falling, single point]",–
Cn1cccc1/C=N\NC(=O)c1cncc(Br)c1,"35.5 µM [falling, single point]",–
COc1ccccc1CNS(=O)(=O)c1ccc2c(c1)CC(C)N2C(=O)C1CCC1 (stereo not given),"35.5 µM [falling, single point]",–
Cc1c(C(=O)NCCCN2CCCC2=O)oc2ccc(S(=O)(=O)N3CCOCC3)cc12,"20.6 µM [falling, single point]",–
COCCOCC(O)CN1CCN(c2ccccc2)CC1 (stereo not given),"6.51 µM [falling, single point]",–
Cc1nc(NC(=O)c2ccccc2O)sc1C,"2.24 µM [falling, partial curve, poor fit]",–
Cn1c(=O)c2c(O)c(C=Nc3ccc(F)cc3)c(=O)n(C)c2n(C)c1=O,"3.16 µM [rising, single point]",–
OC(CNCCc1ccccc1)COc1ccc(OCC(O)CNCCc2ccccc2)cc1 (stereo not given),"11.2 µM [falling, partial curve, poor fit]",–
CCN(CC(=O)NCc1cccs1)C(=O)CCOc1ccccc1,"29.1 µM [rising, single point]",–
COc1ccc(C2c3c(ncn(CCCO)c3=N)Oc3ccc4ccccc4c32)cc1 (stereo not given),"14.1 µM [falling, single point]","35.5 µM [rising, partial curve, poor fit]"
Cc1ccc2c(c1)COc1c3ccc(C(=O)O)cc3nn1-2,"7.94 µM [falling, partial curve, poor fit]",–
O=C(Nc1ccc(N2CCOCC2)c(F)c1)c1cccs1,"14.1 µM [falling, single point]",–
O=C(Nc1ccccc1)c1ccc2ccccc2n1,"22.4 µM [falling, single point]",–
Cc1cc(S(=O)(=O)NCC(C)C)ccc1OCC(=O)NCc1ccco1,"0.631 µM [rising, full curve, poor fit]",–
COc1ccc(-n2c(N)c(C(=O)NCc3ccco3)c3nc4ccccc4nc32)cc1,"5.62 µM [falling, partial curve]",–
O=C(CCc1ccccc1)NC(=S)Nc1ccc2c(c1)C(=O)OC2,"35.5 µM [rising, single point]",–
CN(C(=O)CSc1nc2c(c(=O)[nH]1)CCC2)c1ccccc1,–,"6.31 µM [rising, full curve, poor fit]"
